# Measured values: PubChem BioAssay AID330 (DTP/NCI, 2004)
# The list shows only some results of the screen, not a fair sample: it gathers tests that were run many times, whatever their T/C, doses with no T/C, and many T/C values between a quarter and a half above the control. Further doses and runs are listed elsewhere. T/C: endpoint of the treated group in % of that of the vehicle group. Some entries give survivors of the animals treated and no T/C: the source holds a T/C of zero for them, seemingly a mark for toxic or unscored doses. Some doses without a T/C left all or most animals alive at the check, yet need not have been tolerated: survival well below the control is almost never listed, so the zero probably covers shortened survival too. Counts of survivors are from the toxicity check (mostly the fifth day) where no day follows; animals may have died later. Schedules are NCI's codes, taken here to give the interval after Q, in days (D) or hours (H), and the number of doses after X. Some entries were tested several times; their values stand side by side, smallest first. Where survival is the endpoint, the PubChem record calls one and a half times the control and up active, and a quarter to a half above the control has no call in these data; cut-offs in other NCI protocols can differ.
# Tested on: P388 leukemia ip, CD2F1 mice, survival T/C
# Test: NCI In Vivo Anticancer Drug Screen. Data for tumor model P388 Leukemia (intraperitoneal) in CD2F1 (CDF1) mice
# Conditions: T/C endpoint: median survival time, higher T/C = longer survival
# [1] = dose: 50.0 mg/kg/injection, schedule: Q01DX009 (ip), vehicle: saline
# [2] = dose: 50.0 mg/kg/injection, schedule: Q01DX009 (ip), vehicle: saline with Tween-80
# [3] = dose: 100.0 mg/kg/injection, schedule: Q01DX009 (ip), vehicle: saline with Tween-80
# [4] = dose: 200.0 mg/kg/injection, schedule: Q01DX009 (ip), vehicle: saline with Tween-80
# [5] = dose: 100.0 mg/kg/injection, schedule: Q01DX009 (ip), vehicle: saline
# [6] = dose: 200.0 mg/kg/injection, schedule: Q01DX009 (ip), vehicle: saline
# [7] = dose: 200.0 mg/kg/injection, schedule: Q01DX005 (ip), vehicle: saline with Tween-80
# [8] = dose: 240.0 mg/kg/injection, schedule: Q01DX005 (ip), vehicle: saline with Tween-80
smiles,measurement,setting,value
NCCNCC[OH2+].NCCNCC[OH2+].O=[N+]([O-])[O-].[Ni+2],survivor count,[1],6 of 6
CS(=O)(=O)c1cc([N+](=O)[O-])cc([N+](=O)[O-])c1Cl,survivor count,"dose: 10.0 mg/kg/injection, schedule: Q01DX009 (ip), vehicle: saline with Tween-80",6 of 6
CC(=O)Nc1ccc(C(=O)C(C)Br)cc1 (centres undefined),survivor count,[2],2 of 6 and 3 of 6
same,survivor count,[3],0 of 6
same,survivor count,[4],0 of 6
Cc1ccc(S(=O)(=O)/N=[Se](\C)c2ccccc2)cc1 (centres undefined),survivor count,"dose: 6.25 mg/kg/injection, schedule: Q01DX009 (ip), vehicle: saline",5 of 6
same,survivor count,"dose: 12.5 mg/kg/injection, schedule: Q01DX009 (ip), vehicle: saline",6 of 6
same,survivor count,[5],1 of 6
same,survivor count,[6],0 of 6
COc1ccc(/C=N/n2cnc3c(sc4ccccc43)c2=O)cc1,survivor count,"dose: 100.0 mg/kg/injection, schedule: Q01DX005 (ip), vehicle: Klucel (hydroxypropylcellulose) (HPC)",6 of 6
N=c1c2[nH]cnc2ncn1O,survivor count,"dose: 240.0 mg/kg/injection, schedule: Q01DX005 (ip), vehicle: Klucel (hydroxypropylcellulose) (HPC)",1 of 6
COc1ccc2c(c1)CCC1=C2C=C[P+]1(C)C,survivor count,[3],0 of 6
same,survivor count,[4],0 of 6
C=C(C)C(C(=O)OCC)C(=O)OCC,survivor count,"dose: 400.0 mg/kg/injection, schedule: Q01DX009 (ip), vehicle: saline with Tween-80",4 of 6
CC1CC(C)C(C)C(CNCC2CC(C)CC(C)C2C)C1 (centres undefined),survivor count,[7],0 of 5
COc1ccc2nc3cc(Cl)ccc3c(NCCCC3CCCN4CCCCC34)c2c1 (centres undefined),survivor count,"dose: 60.0 mg/kg/injection, schedule: Q01DX005 (ip), vehicle: saline with Tween-80",3 of 6
same,survivor count,"dose: 120.0 mg/kg/injection, schedule: Q01DX005 (ip), vehicle: saline with Tween-80",3 of 6
same,survivor count,[8],0 of 6
OCC[N+]12CN3CN(CN(C3)C1)C2,T/C,"dose: 400.0 mg/kg/injection, schedule: Q01DX009 (ip), vehicle: saline",126 and 142 % of control
same,T/C,"dose: 600.0 mg/kg/injection, schedule: Q01DX009 (ip), vehicle: saline",136 % of control
CCCCCCCCC#CCCCCCCCCCCCC(=O)O,survivor count,[3],4 of 6
CCOC(=O)CNC(=O)c1cc2c(cn1)[nH]c1ccccc12,survivor count,[8],6 of 6
C/C(=N\NC(=S)N1CCC(C)CC1)c1nccs1,survivor count,"dose: 50.0 mg/kg/injection, schedule: Q01DX005 (ip), vehicle: saline with Tween-80",4 of 6
same,survivor count,"dose: 100.0 mg/kg/injection, schedule: Q01DX005 (ip), vehicle: saline with Tween-80",0 of 6
same,survivor count,[7],0 of 6
C/C(=N\NC(=S)N1CCC(C)CC1)c1cccc2cccnc12,survivor count,[7],5 of 6
NC(CSCCc1ccncc1)C(=O)O (centres undefined),survivor count,[1],6 of 6
same,survivor count,[5],6 of 6
same,survivor count,[6],6 of 6
CN(C)CCC(=O)c1ccccc1,survivor count,[6],0 of 6
COC(=O)C1Cc2cncn2C(=O)N1 (centres undefined),T/C,"dose: 128.0 mg/kg/injection, schedule: Q01DX009 (ip), vehicle: water",129 % of control
CCOC(=O)c1cc2c(=O)oc3ccccc3c2oc1=O,survivor count,[2],6 of 6
same,survivor count,[3],6 of 6
same,survivor count,[4],6 of 6
